Laboratory results from the supplement of paper PMC10849652.
Some of the results follow. Residues, ends and D or L forms follow the SMILES beside them. *: point of attachment. Cbz = O=C(OCc1ccccc1)*

Sequences of proteins named here, by UniProt entry; tags and fusion partners are left off. A change or cut given only in a name is not applied to a line headed by its entry.
UniProt Q14156: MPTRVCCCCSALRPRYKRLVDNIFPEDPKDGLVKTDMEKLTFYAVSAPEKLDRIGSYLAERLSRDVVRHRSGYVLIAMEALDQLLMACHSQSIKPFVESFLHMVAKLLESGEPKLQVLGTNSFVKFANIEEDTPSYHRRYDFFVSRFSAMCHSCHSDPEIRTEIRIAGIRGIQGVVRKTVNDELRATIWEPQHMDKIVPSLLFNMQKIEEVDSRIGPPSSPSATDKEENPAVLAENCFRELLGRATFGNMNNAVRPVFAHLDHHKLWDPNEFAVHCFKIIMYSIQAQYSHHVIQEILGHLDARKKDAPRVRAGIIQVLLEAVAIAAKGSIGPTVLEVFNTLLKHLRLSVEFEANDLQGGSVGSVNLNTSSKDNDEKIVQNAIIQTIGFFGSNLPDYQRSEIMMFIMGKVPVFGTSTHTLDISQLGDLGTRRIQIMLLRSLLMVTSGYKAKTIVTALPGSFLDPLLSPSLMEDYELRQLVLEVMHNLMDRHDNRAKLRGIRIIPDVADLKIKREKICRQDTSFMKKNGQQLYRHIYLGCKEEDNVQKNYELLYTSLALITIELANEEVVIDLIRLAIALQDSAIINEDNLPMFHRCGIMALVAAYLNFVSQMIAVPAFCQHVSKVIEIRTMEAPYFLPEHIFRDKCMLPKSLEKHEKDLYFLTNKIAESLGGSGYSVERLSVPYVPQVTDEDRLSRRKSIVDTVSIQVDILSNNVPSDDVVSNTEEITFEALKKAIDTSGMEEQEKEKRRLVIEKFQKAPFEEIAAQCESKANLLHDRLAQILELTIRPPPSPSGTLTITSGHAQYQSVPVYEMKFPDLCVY
UniProt Q9NQZ7: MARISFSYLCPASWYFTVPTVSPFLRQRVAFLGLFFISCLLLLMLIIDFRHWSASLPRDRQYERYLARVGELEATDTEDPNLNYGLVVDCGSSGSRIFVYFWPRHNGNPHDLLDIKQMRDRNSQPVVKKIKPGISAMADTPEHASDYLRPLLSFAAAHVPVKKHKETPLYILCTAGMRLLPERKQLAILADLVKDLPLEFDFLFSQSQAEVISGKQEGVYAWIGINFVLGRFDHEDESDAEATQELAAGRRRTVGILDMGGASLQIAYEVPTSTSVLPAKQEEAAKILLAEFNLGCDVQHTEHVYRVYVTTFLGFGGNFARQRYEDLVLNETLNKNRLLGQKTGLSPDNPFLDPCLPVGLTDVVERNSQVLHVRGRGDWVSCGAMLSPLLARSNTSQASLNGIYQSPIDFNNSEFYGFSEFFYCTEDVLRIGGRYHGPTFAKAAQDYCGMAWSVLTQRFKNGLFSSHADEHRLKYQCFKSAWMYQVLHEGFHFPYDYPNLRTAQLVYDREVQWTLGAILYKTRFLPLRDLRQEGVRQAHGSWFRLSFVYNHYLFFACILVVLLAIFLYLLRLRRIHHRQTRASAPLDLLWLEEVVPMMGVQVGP
UniProt Q8N5X7: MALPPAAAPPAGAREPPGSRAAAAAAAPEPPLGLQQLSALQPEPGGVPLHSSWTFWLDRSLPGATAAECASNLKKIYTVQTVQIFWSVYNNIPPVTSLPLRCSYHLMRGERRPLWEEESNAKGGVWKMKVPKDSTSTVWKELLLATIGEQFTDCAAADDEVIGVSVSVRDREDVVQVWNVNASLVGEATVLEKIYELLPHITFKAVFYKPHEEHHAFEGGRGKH
UniProt Q96C92: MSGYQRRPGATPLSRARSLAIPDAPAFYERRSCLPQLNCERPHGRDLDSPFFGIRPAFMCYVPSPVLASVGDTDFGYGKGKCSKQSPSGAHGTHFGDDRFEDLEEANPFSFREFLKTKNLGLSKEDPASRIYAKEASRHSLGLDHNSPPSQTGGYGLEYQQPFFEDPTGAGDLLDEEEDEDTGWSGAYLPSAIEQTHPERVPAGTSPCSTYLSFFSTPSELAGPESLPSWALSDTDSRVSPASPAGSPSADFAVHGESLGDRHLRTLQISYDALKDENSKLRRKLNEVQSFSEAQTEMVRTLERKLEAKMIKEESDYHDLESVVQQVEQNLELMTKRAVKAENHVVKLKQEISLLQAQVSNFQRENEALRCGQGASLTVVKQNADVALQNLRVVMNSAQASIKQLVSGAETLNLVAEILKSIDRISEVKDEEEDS
UniProt P29692: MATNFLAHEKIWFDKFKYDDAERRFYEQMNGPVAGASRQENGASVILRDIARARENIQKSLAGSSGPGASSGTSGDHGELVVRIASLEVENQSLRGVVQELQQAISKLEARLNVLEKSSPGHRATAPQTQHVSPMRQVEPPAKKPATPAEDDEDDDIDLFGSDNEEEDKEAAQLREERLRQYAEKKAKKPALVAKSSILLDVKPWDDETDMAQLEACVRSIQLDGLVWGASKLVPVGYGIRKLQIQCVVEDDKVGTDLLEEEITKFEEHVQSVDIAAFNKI
UniProt Q9Y6B2: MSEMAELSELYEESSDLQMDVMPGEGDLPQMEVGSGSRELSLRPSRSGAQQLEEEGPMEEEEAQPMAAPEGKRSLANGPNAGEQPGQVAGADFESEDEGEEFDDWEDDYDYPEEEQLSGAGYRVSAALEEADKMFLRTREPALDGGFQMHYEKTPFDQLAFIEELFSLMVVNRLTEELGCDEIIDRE
UniProt O00418: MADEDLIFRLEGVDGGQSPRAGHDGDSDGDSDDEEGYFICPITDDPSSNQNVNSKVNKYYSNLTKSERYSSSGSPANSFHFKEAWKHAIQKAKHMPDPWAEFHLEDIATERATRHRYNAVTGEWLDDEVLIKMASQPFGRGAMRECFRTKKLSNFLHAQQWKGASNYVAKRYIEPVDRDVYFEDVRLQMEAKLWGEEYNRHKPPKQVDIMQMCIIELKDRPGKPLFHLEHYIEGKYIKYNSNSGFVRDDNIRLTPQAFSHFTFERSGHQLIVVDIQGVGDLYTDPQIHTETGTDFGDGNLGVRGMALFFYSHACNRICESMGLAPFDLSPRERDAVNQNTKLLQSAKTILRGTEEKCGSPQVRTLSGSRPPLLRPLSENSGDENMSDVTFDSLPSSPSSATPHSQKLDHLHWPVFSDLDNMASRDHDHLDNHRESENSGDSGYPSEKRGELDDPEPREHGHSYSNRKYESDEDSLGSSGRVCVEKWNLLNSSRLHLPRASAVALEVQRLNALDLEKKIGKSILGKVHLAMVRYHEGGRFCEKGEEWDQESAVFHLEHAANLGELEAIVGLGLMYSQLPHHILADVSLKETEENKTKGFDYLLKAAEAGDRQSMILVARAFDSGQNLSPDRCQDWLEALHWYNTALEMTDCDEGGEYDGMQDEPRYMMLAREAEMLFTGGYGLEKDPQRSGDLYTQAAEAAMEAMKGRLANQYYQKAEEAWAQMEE
UniProt Q14241: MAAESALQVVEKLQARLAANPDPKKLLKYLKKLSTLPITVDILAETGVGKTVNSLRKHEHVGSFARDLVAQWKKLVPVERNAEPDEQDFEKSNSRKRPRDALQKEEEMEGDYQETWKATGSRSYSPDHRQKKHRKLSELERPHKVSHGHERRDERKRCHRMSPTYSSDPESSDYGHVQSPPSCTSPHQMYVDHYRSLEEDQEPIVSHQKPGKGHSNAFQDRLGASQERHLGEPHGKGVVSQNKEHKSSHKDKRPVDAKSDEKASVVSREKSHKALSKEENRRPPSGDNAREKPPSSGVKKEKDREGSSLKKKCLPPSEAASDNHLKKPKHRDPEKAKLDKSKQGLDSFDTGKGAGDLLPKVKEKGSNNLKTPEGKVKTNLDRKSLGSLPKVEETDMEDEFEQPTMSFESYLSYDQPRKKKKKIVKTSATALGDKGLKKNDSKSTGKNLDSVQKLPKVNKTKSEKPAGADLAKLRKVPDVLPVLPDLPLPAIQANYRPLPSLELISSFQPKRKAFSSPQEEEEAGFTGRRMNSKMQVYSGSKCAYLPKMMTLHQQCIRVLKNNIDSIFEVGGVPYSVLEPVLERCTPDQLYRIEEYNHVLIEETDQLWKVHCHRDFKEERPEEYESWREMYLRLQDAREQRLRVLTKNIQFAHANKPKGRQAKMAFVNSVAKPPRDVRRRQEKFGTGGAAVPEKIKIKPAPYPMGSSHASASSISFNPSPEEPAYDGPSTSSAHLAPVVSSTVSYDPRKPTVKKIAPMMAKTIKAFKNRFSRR
UniProt Q04637, whole entry, looked up: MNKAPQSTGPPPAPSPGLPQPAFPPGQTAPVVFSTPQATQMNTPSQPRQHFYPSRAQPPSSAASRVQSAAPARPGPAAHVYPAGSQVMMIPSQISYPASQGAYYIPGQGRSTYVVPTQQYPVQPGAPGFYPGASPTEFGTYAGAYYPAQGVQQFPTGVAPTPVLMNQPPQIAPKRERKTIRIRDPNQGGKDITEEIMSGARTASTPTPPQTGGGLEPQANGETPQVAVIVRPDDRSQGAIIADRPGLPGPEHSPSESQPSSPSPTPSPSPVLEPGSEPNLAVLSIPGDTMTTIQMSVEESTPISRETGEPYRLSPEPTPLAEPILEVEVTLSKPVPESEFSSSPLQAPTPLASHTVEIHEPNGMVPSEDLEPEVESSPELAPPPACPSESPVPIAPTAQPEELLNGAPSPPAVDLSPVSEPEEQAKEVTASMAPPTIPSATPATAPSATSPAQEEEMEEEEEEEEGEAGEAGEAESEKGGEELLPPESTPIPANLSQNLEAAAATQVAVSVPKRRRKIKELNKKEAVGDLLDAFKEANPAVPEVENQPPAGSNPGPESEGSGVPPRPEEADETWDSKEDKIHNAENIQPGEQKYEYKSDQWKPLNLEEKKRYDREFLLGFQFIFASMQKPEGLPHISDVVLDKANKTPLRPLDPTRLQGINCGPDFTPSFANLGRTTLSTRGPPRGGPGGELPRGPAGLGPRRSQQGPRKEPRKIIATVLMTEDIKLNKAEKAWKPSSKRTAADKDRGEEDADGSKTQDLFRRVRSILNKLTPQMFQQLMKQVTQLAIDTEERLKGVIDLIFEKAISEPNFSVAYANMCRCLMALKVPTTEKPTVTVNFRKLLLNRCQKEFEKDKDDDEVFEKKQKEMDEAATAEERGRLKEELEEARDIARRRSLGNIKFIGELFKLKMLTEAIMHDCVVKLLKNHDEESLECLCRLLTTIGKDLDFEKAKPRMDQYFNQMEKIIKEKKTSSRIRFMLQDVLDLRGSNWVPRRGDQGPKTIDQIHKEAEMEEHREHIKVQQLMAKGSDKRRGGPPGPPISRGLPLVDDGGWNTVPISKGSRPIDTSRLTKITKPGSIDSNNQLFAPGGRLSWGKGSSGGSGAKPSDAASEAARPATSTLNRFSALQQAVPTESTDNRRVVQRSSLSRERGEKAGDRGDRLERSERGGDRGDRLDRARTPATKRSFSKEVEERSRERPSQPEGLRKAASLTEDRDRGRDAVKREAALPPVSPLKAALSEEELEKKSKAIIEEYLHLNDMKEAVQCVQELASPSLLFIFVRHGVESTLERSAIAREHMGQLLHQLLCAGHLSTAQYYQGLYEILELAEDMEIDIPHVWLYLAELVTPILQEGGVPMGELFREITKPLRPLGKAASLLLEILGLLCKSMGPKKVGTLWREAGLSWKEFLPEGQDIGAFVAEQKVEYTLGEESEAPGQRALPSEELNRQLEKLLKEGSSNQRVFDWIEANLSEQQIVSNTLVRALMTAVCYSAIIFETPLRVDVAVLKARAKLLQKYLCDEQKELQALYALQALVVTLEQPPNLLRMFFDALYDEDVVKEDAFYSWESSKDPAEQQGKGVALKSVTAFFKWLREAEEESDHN
UniProt O75355: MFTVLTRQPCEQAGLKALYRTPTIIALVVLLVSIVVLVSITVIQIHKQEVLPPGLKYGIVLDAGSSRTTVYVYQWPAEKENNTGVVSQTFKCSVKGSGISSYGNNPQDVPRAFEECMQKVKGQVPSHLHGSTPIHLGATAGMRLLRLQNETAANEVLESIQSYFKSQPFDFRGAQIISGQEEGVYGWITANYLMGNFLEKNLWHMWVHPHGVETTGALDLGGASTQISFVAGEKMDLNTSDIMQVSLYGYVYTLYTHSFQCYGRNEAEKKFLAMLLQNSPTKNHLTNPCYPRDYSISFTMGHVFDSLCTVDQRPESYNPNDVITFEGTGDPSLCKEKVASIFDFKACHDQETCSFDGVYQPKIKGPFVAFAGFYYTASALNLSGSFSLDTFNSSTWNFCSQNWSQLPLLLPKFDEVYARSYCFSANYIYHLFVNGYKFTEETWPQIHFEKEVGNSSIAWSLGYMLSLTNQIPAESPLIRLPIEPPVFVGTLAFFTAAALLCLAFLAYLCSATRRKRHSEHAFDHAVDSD
UniProt Q9H0I2: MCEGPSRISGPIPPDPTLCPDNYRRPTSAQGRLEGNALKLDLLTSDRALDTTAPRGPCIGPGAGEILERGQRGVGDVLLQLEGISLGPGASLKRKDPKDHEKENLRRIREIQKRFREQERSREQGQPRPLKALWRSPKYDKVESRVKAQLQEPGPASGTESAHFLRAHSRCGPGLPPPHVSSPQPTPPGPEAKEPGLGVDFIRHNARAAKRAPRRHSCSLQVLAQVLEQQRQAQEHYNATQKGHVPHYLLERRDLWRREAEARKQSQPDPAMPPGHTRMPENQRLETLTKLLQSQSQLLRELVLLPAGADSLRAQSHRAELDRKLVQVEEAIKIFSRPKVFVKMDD

What was measured:
Test in all cases: log2 fold change, soluble protein after heating vs DMSO (PISA); higher = thermal stabilisation; K562 cells, 10 uM, 30 min; active = over 0.2 and 3.5 SD of the protein, either way, in both replicates (recomputed)
erlotinib = compound: C#Cc1cccc(Nc2ncnc3cc(OCCOC)c(OCCOC)cc23)c1 [erlotinib]
Procedure, shortened: (§1)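 K562 cells at 2×10^6 cells/mL were treated with 10 μM compound for 30 min. Aliquots were heated for 3 min across 48°C-58°C, pooled, and extracted in PBS with 0.5% NP-40 at 4°C; soluble protein was the supernatant after 21,000xg for 90 min. Soluble protein was quantified by TMTpro 16plex LC-MS/MS with channel sums equalised, and reported as log2 fold change in thermal stability against DMSO controls, with values from duplicates.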

[1] = compound: C/C(=N\NC(=O)C1=CC(=CC=C1)S(=O)(=O)N2CCOCC2)/C3=C(C=CC(=C3)Cl)O
Procedure, shortened: as §1

[2] = compound: C1=CC(=C(C=C1Cl)C2=NC3=NC=CN=C3C(=N2)NC4=CC=NC=C4)F
Procedure, shortened: as §1

[3] = compound: C1=CC(=CC=C1C2=NC3=C(N2)C=C(C=C3)C(=O)N)OC4=CC=C(C=C4)Cl
Procedure, shortened: as §1

[4] = compound: C1=CC2=C(C=CC(=C2)/C=C\3/C(=O)NC(=NCC4=CC=CS4)S3)N=C1
Procedure, shortened: as §1

[5] = compound: C1=CC2=NC=CN=C2C=C1/C=C/3\C(=O)NC(=O)S3
Procedure, shortened: as §1

[6] = compound: C1=CC=C(C=C1)C2=NC(=C(N2)C3=CC=NC=C3)C4=CC(=C(C=C4)Cl)O
Procedure, shortened: as §1

[7] = compound: C1=CC=C2C(=C1)C3=NNC4=CC=CC(=C43)C2=O
Procedure, shortened: as §1

[8] = compound: C1CCN(C1)C(=O)NC2=CC=CC(=C2)NC3=NC=C(C(=N3)NCCC4=CN=CN4)Br
Procedure, shortened: as §1

[9] = compound: C1CN(CCC1(CC2=CC=C(C=C2)Cl)N)C3=NC=NC4=C3C=CN4
Procedure, shortened: as §1

ibrutinib = compound: C=CC(=O)N1CCC[C@@H](n2nc(-c3ccc(Oc4ccccc4)cc3)c3c(N)ncnc32)C1 [ibrutinib]
Procedure, shortened: as §1

[10] = compound: CC(=O)c1cnc2ccc(-c3cc(Cl)c(O)c(Cl)c3)nc2c1N[C@H]1CC[C@H](CN(C)C)CC1
Procedure, shortened: as §1

ralimetinib = compound: CC(C)(C)Cn1c(N)nc2ccc(-c3[nH]c(C(C)(C)C)nc3-c3ccc(F)cc3)nc21 [ralimetinib]
Procedure, shortened: as §1

[11] = compound: CC(C)(O)CC(=O)NCCn1ccc2ncnc(Nc3ccc(Oc4cccc(C(F)(F)F)c4)c(Cl)c3)c21
Procedure, shortened: as §1

[12] = compound: CC(C)C1=C2N=C(C=C(N2N=C1)NCC3=CC=CC=C3)NCCCCCCN
Procedure, shortened: as §1

[13] = compound: CC(C)C[C@@H](C=O)NC(=O)[C@H](CC(C)C)NC(=O)[C@H](CC(C)C)NC(=O)OCc1ccccc1
Procedure, shortened: as §1

[14] = compound: CC1=C(C2=C(C=C1)C(=O)C3=CC=CC=C3N2CCCN)C
Procedure, shortened: as §1

IRAK-1-4 Inhibitor I = compound: C1COCCN1CCN2C3=CC=CC=C3N=C2NC(=O)C4=CC(=CC=C4)[N+](=O)[O-] [IRAK-1-4 Inhibitor I]
Procedure, shortened: as §1

pinometostat = compound: CC(C)N(C[C@H]1O[C@@H](n2cnc3c(N)ncnc32)[C@H](O)[C@@H]1O)[C@H]1C[C@@H](CCc2nc3cc(C(C)(C)C)ccc3[nH]2)C1 [pinometostat]
Procedure, shortened: as §1

[15] = compound: CC1=C(C(CC(=O)N1)C2=CC=C(C=C2)C(F)(F)F)C(=O)NC3=C(C=C4C(=C3)C=NN4)F
Procedure, shortened: as §1

Measured: log2 fold change

ELOVL5 isoform 2 (UniProt Q9NYP7)
inactive: erlotinib 0.03 | [1] 0.117 | [2] -0.087 | [3] -0.005 | [4] 0.084 | [5] 0.122 | [6] 0.068 | [7] -0.068 | [8] 0.031 | [9] 0.008 | ibrutinib -0.075 | [10] -0.032 | ralimetinib -0.058 | [11] -0.272 | [12] -0.348 | [13] -0.05 | [14] 0.002

EIF2AK3 (UniProt Q9NZJ5)
inactive: erlotinib 0.056 | [1] 0.022 | [2] 0.091 | [3] -0.222 | [4] 0.421 | [5] -0.311 | [7] -0.016 | [8] 0.148 | [9] 0.075 | IRAK-1-4 Inhibitor I -0.136 | ibrutinib 0.13 | [10] -0.369 | [11] -0.322 | [12] 0.011 | pinometostat -0.048 | [14] 0.032

EP400P1 isoform 6 (UniProt Q6ZTU2)
inactive: [6] 0.027 | [8] 0.02 | [9] -0.056 | ralimetinib 0.022 | [13] -0.045 | [14] 0.039

EEF1AKMT2 (UniProt Q5JPI9)
inactive: erlotinib 0.115 | [3] 0.111 | [5] 0.017 | ibrutinib 0.007 | [12] -0.206

EFR3A (UniProt Q14156)
inactive: [2] -0.055 | [11] 0.103 | [15] -0.013

ELP5 isoform 2 (UniProt Q8TE02)
inactive: erlotinib 0.039 | [3] 0.137 | [12] 0.365

ENTPD7 (UniProt Q9NQZ7)
inactive: erlotinib 0.096 | [2] -0.028 | [3] -0.181 | [5] 0.063 | [8] -0.042 | [9] 0.037 | IRAK-1-4 Inhibitor I -0.146 | ibrutinib -0.013 | [11] 0.181 | [12] -0.043 | pinometostat -0.009 | [14] -0.016

EIF4E3 (UniProt Q8N5X7)
inactive: erlotinib 0.016 | [3] -0.035 | [6] 0.003 | IRAK-1-4 Inhibitor I -0.085 | ralimetinib -0.027 | [12] -0.055 | [13] -0.062 | pinometostat 0.152

EHBP1 (UniProt Q8NDI1)
inactive: [1] -0.012 | [4] 0.086 | [7] 0.095 | [8] -0.132 | [9] 0.033 | [10] 0.018 | [14] -0.003

ENO2 (UniProt U3KQQ1)
inactive: [5] -0.021 | IRAK-1-4 Inhibitor I 0.088 | ibrutinib 0.22 | pinometostat 0

ELK1 (UniProt P19419)
inactive: IRAK-1-4 Inhibitor I 0.026 | pinometostat -0.111

ENTPD4 (UniProt Q9Y227)
inactive: erlotinib -0.049 | [2] 0.198 | [3] 0.114 | [5] 0.118 | [8] -0.132 | [9] 0.078 | IRAK-1-4 Inhibitor I -0.083 | ibrutinib 0.111 | [11] -0.061 | [12] -0.084 | pinometostat 0.024 | [14] -0.065

EEF1AKMT4-ECE2 (UniProt P0DPD8)
inactive: [5] -0.012 | IRAK-1-4 Inhibitor I 0.059 | ibrutinib -0.204 | pinometostat -0.002

ELMO2 (UniProt Q96JJ3)
inactive: [6] -0.021 | ralimetinib -0.055 | [13] 0.024

EMC9 (UniProt Q9Y3B6)
inactive: [15] -0.02

EIF5A (UniProt I3L397)
inactive: [6] -0.072 | ralimetinib -0.307 | [13] 0.054

EGFL7 (UniProt Q9UHF1)
inactive: [1] 0.02 | [2] -0.209 | [4] 0.026 | [5] 0.124 | [7] -0.15 | ibrutinib -0.232 | [10] -0.119 | [11] -0.003

EPB41 isoform 4 (UniProt P11171)
inactive: [5] 0.043 | [6] -0.003 | [8] -0.11 | [9] -0.028 | ibrutinib -0.229 | ralimetinib 0.122 | [13] 0.035 | [14] -0.1

EFHD1 (UniProt Q9BUP0)
inactive: [2] 0.213 | [8] 0.127 | [9] 0.1 | [11] 0 | [15] -0.12 | [14] -0.337

ENTR1 (UniProt Q96C92)
inactive: erlotinib -0.015 | [3] 0.043 | [12] -0.156

EEF1D isoform 3 (UniProt P29692)
inactive: erlotinib -0.009 | [3] 0.009 | [8] -0.16 | [9] -0.087 | [12] -0.27 | [14] 0.605

ENPP2 isoform 2 (UniProt Q13822)
inactive: [2] -0.06 | [5] -0.031 | ibrutinib 0.038 | [11] -0.032

EIF3I (UniProt Q5TFK1)
inactive: [1] -0.037 | [4] 0.104 | [6] 0.09 | [7] -0.054 | [8] -0.063 | [9] 0.095 | IRAK-1-4 Inhibitor I -0.152 | [10] -0.063 | ralimetinib 0.09 | [13] -0.178 | pinometostat -0.053 | [14] 0.109

EID1 (UniProt Q9Y6B2)
inactive: erlotinib -0.17 | [2] -0.425 | [3] 0.137 | [8] 0.092 | [9] 0.029 | [11] 0.002 | [12] 0.05 | [14] -0.281

EIF4B (UniProt F8VP89)
inactive: [1] -0.251 | [4] 0.244 | [5] 0.175 | [6] -0.054 | [7] -0.004 | IRAK-1-4 Inhibitor I -0.156 | ibrutinib 0.102 | [10] -0.065 | ralimetinib -0.091 | [13] 0.042 | pinometostat 0.193 | [15] 0.244

EEF2K (UniProt O00418)
inactive: erlotinib -0.064 | [2] -0.137 | [3] -0.024 | [6] 0.027 | ralimetinib 0.126 | [11] -0.047 | [12] -0.245 | [13] 0.169

EPB41, A0A2R8Y783
inactive: IRAK-1-4 Inhibitor I 0.049 | pinometostat 0.127 | [15] 0.107

ELOA (UniProt Q14241)
inactive: [2] -0.213 | [11] 0.046

EIF4G1 (UniProt Q04637)
inactive: [1] 0.171 | [4] 0.018 | [7] -0.356 | [8] -0.301 | [9] -0.425 | [10] -0.334 | [14] 0.067

Fetched one by one from the entries so far (2):
ENTPD4 (UniProt Q9Y227)
inactive: erlotinib -0.049 | [2] 0.198 | [3] 0.114 | [5] 0.118 | [8] -0.132 | [9] 0.078 | IRAK-1-4 Inhibitor I -0.083 | ibrutinib 0.111 | [11] -0.061 | [12] -0.084 | pinometostat 0.024 | [14] -0.065

EGFL7 (UniProt Q9UHF1)
inactive: [1] 0.02 | [2] -0.209 | [4] 0.026 | [5] 0.124 | [7] -0.15 | ibrutinib -0.232 | [10] -0.119 | [11] -0.003

(list continues)

ELAVL4 (UniProt P26378)
inactive: [5] 0.033 | [6] 0.057 | [8] -0.066 | [9] 0.036 | IRAK-1-4 Inhibitor I -0.036 | ibrutinib -0.123 | ralimetinib 0.298 | [13] 0.226 | pinometostat 0.356 | [15] 0.081 | [14] -0.022

EEF1AKMT1 (UniProt Q8WVE0)
inactive: [2] 0.016 | [11] -0.207

ENTPD3 (UniProt O75355)
inactive: IRAK-1-4 Inhibitor I -0.302 | pinometostat -0.143

ELOVL6 (UniProt Q9H5J4)
inactive: erlotinib -0.298 | [3] 0.049 | [5] 0.075 | [6] 0.013 | [8] -0.014 | [9] 0.065 | IRAK-1-4 Inhibitor I 0.084 | ibrutinib -0.093 | ralimetinib -0.005 | [12] -0.221 | [13] 0.063 | pinometostat -0.022 | [15] -0.043 | [14] 0.165

ENO3 (UniProt K7EKN2)
inactive: [6] -0.177 | ralimetinib 0 | [13] 0.126

EIF3E (UniProt E5RIT4)
inactive: [2] -0.252 | [11] 0.269

EIF5A2 (UniProt Q9GZV4)
inactive: [1] 0.193 | [4] 0.118 | [5] 0.035 | [6] -0.013 | [7] 0.014 | ibrutinib -0.195 | [10] -0.039 | ralimetinib -0.02 | [13] 0.035

ENKD1 (UniProt Q9H0I2)
inactive: erlotinib 0.271 | [3] -0.125 | [8] -0.081 | [9] 0 | [12] -0.043 | [14] -0.008
